Mtb heat-shock: 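Assay on Mycobacterium tuberculosis, filed only as a heat shock assay from Cornell; the read-out is not stated. The concentration is filed as 10 mM, unlikely as a test dose, so the dose is not known. Higher reads as stronger inhibition (inferred: compounds with an IC50 in retests scored well above the rest). Of about 69,000 compounds tested this way, about 930 (1.4%) reached 50% or more in at least one test.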
LdMetRS: 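Methionyl-tRNA synthetase (putative), Leishmania donovani (UniProt E9BF75). Primary screen of methionyl-tRNA synthetase; the read-out is not stated. The test concentration is not given. The values are filed as inhibition. About 68,000 compounds were tested under these conditions; 0.035% (about 24) showed 50% or more at least once.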
Mtb growth Cornell: 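Whole-cell assay for inhibitors of Mycobacterium tuberculosis growth, labelled Cornell in the record; the read-out is not stated. The concentration is filed as 10 mM, unlikely as a test dose, so the dose is not known. The record gives no direction; compounds strong in two other growth screens of this library score well above the rest, so higher reads as stronger inhibition. Of about 53,000 compounds tested this way, about 900 (1.7%) reached 50% or more in at least one test.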

Protein sequences, listed by entry. Tags and fused reporters are not part of them.
UniProt E9BF75, entry or part of it: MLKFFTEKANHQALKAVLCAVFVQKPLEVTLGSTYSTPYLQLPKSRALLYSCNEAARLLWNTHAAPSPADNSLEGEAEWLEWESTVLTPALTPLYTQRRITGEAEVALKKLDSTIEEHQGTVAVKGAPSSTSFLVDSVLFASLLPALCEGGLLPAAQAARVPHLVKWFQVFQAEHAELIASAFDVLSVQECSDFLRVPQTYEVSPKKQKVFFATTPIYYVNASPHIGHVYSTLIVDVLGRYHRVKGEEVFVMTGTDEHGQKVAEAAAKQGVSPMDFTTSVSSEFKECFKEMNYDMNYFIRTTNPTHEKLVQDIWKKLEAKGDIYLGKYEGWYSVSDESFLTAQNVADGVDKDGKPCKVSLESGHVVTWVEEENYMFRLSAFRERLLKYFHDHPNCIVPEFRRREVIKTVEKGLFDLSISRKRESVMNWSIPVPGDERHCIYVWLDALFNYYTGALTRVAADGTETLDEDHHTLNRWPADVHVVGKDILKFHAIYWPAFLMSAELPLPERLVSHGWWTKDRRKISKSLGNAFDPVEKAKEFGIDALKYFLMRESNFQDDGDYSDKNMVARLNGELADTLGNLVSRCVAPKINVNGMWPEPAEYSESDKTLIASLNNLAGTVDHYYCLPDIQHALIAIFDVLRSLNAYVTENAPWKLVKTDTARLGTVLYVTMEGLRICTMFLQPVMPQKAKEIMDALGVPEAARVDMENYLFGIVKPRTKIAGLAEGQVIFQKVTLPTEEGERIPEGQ

Results are percentages, as filed.
The record does not define 0% and 100%; most values in the screen are far below 50% and negative numbers occur (in some assays of this library far below -100).
The compounds are a random part of those screened.
A dash means the value is not listed here; it may have been measured.

| SMILES | Mtb heat-shock | LdMetRS | Mtb growth Cornell |
|---|---|---|---|
| `Cc1ccc(=O)n(CC2(O)CCN(Cc3ccoc3)CC2)n1` | -20 | 14.58 | 24.73 |
| `CN(Cc1ccon1)CC1CCOc2ccccc2C1` (stereo unspecified) | -6.532 | 4.839 | -0.2691 |
| `COc1cccc(C2CC(=O)Nc3nc(N4CCCCC4)sc32)c1OC` (stereo unspecified) | 12.5 | 17 | 70.71 |
| `CC1Cc2ccccc2N1Cc1occc1C(=O)NCC(=O)N(C)C` (stereo unspecified) | 1.092 | 14.89 | 0.4209 |
| `O=C(NCc1cncc2c1CCN(Cc1ccoc1)C2)C1CC1` | - | 7.519 | - |
| `CN(C)C(CNS(=O)(=O)c1cc(F)ccc1F)c1cccn1C` (stereo unspecified) | -24.49 | 9.441 | 12.93 |
| `COc1ccc(CC(=O)N2CC[C@@H]3[C@H](CC2)N(C)CCS3(=O)=O)cc1` | - | 7.904 | - |
| `CC(=O)c1cn(CCC(=O)NCCCC(=O)O)c2ccccc12` | 11.48 | 6.46 | 5.195 |
| `O=C(C1CCOCC1)N1C[C@H](OCc2cccnc2)[C@H]2COC[C@H]21` | - | 0 | - |
| `Cc1ccc(CNC(=O)NC2CCCN(c3ncccn3)C2)n1C` (stereo unspecified) | 18.89 | 8.355 | -54.14 |
| `O=C(c1cccc(S(=O)(=O)NCCc2nccs2)c1)N1CCOCC1` | -6.432 | 14.05 | -2.921 |
| `COCCOc1cc(C)ccc1NC(=O)N(C)Cc1cnn(C)c1` | -5.806 | 12.58 | - |
| `CNC(=O)C(C)(C)N(C)C(=O)c1cc(COc2ccccc2OC)[nH]n1` | 5.21 | 12.5 | 11.95 |
| `Cc1c(F)cccc1S(=O)(=O)Nc1noc(C(C)C)n1` | 5.155 | -3.432 | 24.88 |
| `OCCN1CCCC(c2nccnc2Oc2ccc(F)cc2)C1` (stereo unspecified) | 5.457 | 12.3 | 5.447 |
| `O=C(c1ccc2c(c1)COC2)N1CCC(Nc2ccccc2)CC1` | 7.035 | 12.55 | 9.307 |
| `CCOCC(=O)N1CSCC1C(=O)N(C)Cc1ccco1` (stereo unspecified) | -6.811 | 15.91 | - |
| `O=C(C1CCC1)N1CCC2(CCCN2CC2CC2)CC1` | - | 6.09 | - |
| `CCOC1COC2(CCN(Cc3ccc(C)cc3)CC2)C1` (stereo unspecified) | - | 15.69 | - |
| `Cc1nc(C)n(CC2CN(CCC(=O)N3CCCCC3)CCO2)n1` (stereo unspecified) | 4.69 | 17.13 | - |
| `CC(C)c1nc(C2CCCN2C(=O)CCn2cncn2)no1` (stereo unspecified) | 2.753 | 6.25 | - |
| `O=C(O)C(F)(F)F.[H][C@@]12COC[C@H](C(=O)Nc3cnccn3)[C@]1([H])CN(C1CCCC1)C2` | 7.148 | - | 10.69 |
| `COCCC1(CNC(=O)NCC2CCCN(C)C2)CCCC1` (stereo unspecified) | 4.995 | -2.899 | -2.304 |
| `COc1cc(C(=O)N(Cc2cnn(C)c2)C(C)C)ccc1C` | -8.213 | 16.48 | 6.457 |
| `O=C(c1cc2c([nH]c1=O)CCC2)N1CCCC1c1ccccc1` (stereo unspecified) | -12.7 | - | - |
| `CCc1cnc(C)nc1NCCN1CCC(O)CC1` | -14.26 | 0.5376 | -34.85 |
| `O=C(O)c1ccc(Cc2cccc(F)c2)nc1` | -10.92 | 21.52 | -4.488 |
| `O=C(O)C(F)(F)F.O=C(O)C(F)(F)F.[H][C@]12CCC(=O)N(CC3CCOCC3)[C@@]1([H])CCN2Cc1ccccn1` | -34.7 | - | 8.672 |
| `COc1ccccc1C(=O)N1CCCC1Cn1cc(C)cn1` (stereo unspecified) | 7.484 | 14.38 | 12.77 |
| `Cc1nc2cc(=O)[nH]n2c(C)c1CC(=O)Nc1cn[nH]c1` | -20.39 | 16.15 | - |
| `O=C(NCc1ccccn1)c1cc2n(n1)CCNC2` | -31.88 | 19.81 | 1.504 |
| `COc1ncc(CN2CCCC(c3[nH]ncc3S(C)(=O)=O)C2)cn1` (stereo unspecified) | -20.65 | 11.53 | - |
| `COc1cccc(N2C(=O)CC3(CCCNC3)C2=O)c1` (stereo unspecified) | - | 12.32 | - |
| `Cc1ncc2c(n1)CN(c1ncnc3[nH]ccc13)CC2` | 13.82 | 16.52 | -0.6099 |
| `CCOc1ccccc1CNC(=O)N1CCC(n2cncn2)CC1` | -0.8609 | 15.95 | 5.4 |
| `CC(=O)NCc1ccc(S(=O)(=O)NC(=O)c2ccc3c(c2)CCO3)s1` | 0.07973 | 9.415 | 8.806 |
| `Cc1noc(Cl)c1CC(=O)N1CCCC(n2cccn2)C1` (stereo unspecified) | 30.18 | 18.9 | 29.33 |
| `CC(C)(C)C(=O)NCCC(=O)Nc1cc(C#N)cn1C(C)(C)C` | 9.226 | 24.16 | -27.03 |
| `CCN(Cc1cccs1)C(=O)c1ccc(=O)n(C)c1` | -18.29 | 5.279 | 17.57 |
| `CCc1c(C)nc2cc(C3CCN(Cc4ccc(F)cc4)C3)nn2c1O` (stereo unspecified) | -5.699 | 20.83 | -30.4 |
| `CCS(=O)(=O)N1Cc2c(Cn3ccnc3)nn(C)c2C1` | -1.873 | -2.439 | 0.1342 |
| `COc1nc2c(cc1C(=O)NCc1noc(-c3ccco3)n1)CCC2` | 6.995 | 13.17 | -16.65 |
| `CC(C)(N)CNS(=O)(=O)Cc1cccc2cccnc12.Cl` | -3.459 | - | - |
| `[H][C@@]12COC[C@]1(CNS(C)(=O)=O)CN(C(=O)C1CC(F)(F)C1)C2` | 15.7 | - | -11.45 |
| `Cc1cc(C)c2c(NCC3(O)CCCCC3)ncnc2n1` | 15.53 | 11.76 | 9.217 |
| `CCCS(=O)(=O)CC(=O)N1CCN(CC2CC2)c2ccccc21` | -23.67 | 14.29 | - |
| `COc1ccc(S(=O)(=O)Nc2cccnc2-n2cncn2)cc1C` | -22.08 | 12.54 | - |
| `Cc1nnc(C2CCN(C(=O)c3ccc(-n4cccc4)cc3)CC2)s1` | 1.266 | 17.03 | 34.12 |
| `COc1cccc(/C=C/CCN2CCN(S(C)(=O)=O)CC2)c1` | -36.5 | 15.32 | 79.58 |
| `N#Cc1ccc(CC(=O)N2CCC(Nc3cccnn3)CC2)cc1` | 1.244 | 17.66 | -1.725 |
| `CCN1C[C@H]2N(c3ncccn3)CCC[C@@]2(C(=O)NCC2CC2)C1` | - | 16.02 | - |
| `O=c1c(NCCNCCO)c(N2CCN(Cc3ccccc3)CC2)c1=O` | -28.66 | 13.99 | 8.896 |
| `Cn1ccnc1-c1ccccc1C(=O)N1CCc2c(nc(N)[nH]c2=O)C1` | -3.996 | 13.39 | -70.48 |
| `O=C(NCc1ccccc1CN1CCCC1)Nc1nncs1` | 9.359 | 8.101 | 17.78 |
| `CC(=O)N1CCCN(C(=O)NCc2cc[nH]n2)CC1` | 5.823 | 8.661 | -3.008 |
| `CCS(=O)(=O)N1C[C@@H](O)[C@H](N2CCc3ccccc3C2)C1` | -7.031 | 14.89 | 9.57 |
| `CO[C@@H]1CCN(S(=O)(=O)c2cccs2)[C@H]1Cc1cccnc1` | - | 14.29 | - |
| `CCn1c(CN(C)CC(=O)N(C)C)nc2c(F)cccc21` | -15 | 13.54 | - |
| `CC(C)NCc1nc(-c2ccc3c(c2)OCO3)c[nH]1` | - | 14.29 | - |
| `Cc1nn(C)cc1NC(=O)CN1CCC(Oc2cnccn2)CC1` | 6.97 | 14.17 | 11.01 |
| `N#CC1(NC(=O)c2ccc(-c3nc(C4CC4)n[nH]3)cc2)CC1` | 11.72 | 17.75 | -8.379 |
| `CCCS(=O)(=O)N1CCOC2(COCCN(C(C)=O)C2)C1` (stereo unspecified) | 0.6193 | 11.96 | 23.87 |
| `O=C(O)C(F)(F)F.[H][C@@]12OCCN(C(=O)c3ccc(C)o3)[C@@]1([H])CC[C@H]2OCc1ccccn1` | -25.46 | - | 13.05 |
| `CCOc1ccc(CN2C(=O)CC(CC)(CC)C2=O)nc1` | -14.02 | 10.14 | 33.03 |
| `COC(=O)[C@H](C)NC(=O)c1cc(-c2cccc(Cl)c2)no1` | -4.154 | 14.79 | 105.7 |
| `O=C(CCO)N1C[C@H]2CC[C@@H]1CN(C1Cc3ccccc3C1)C2` | - | 7.829 | - |
| `CCO[C@H]1CN(C(=O)c2ccc3c(c2)OCO3)[C@@H]2COC[C@H]12` | - | 2.899 | - |
| `Cc1cccc(CN2CCC3(CC2)NC(=O)CC3c2ccccc2)n1.O=C(O)C(F)(F)F` (stereo unspecified) | -4.61 | - | 39.86 |
| `OC1CCCOC12CCN(c1ncccn1)CC2` (stereo unspecified) | 22.6 | 0.3436 | -37.73 |
| `Fc1cccnc1O[C@@H]1CN(Cc2ccccn2)[C@@H]2CCCO[C@@H]21` | - | 11.82 | - |
| `Cc1nnc(NC(=O)NCc2ccc(OC(C)C)nc2)s1` | -16.01 | 13.64 | - |
| `O=c1n(CCNCc2cccc3ccccc23)nc2ccccn12` | -2.593 | 20.92 | 1.396 |
| `O=C(c1ccco1)N1CC[C@H]2[C@H]1CCN2CC1CCOCC1` | - | 7.317 | - |

Repeated from the top, 7 entries:

SMILES,Mtb heat-shock,LdMetRS,Mtb growth Cornell
Cc1ccc(=O)n(CC2(O)CCN(Cc3ccoc3)CC2)n1,-20,14.58,24.73
CN(Cc1ccon1)CC1CCOc2ccccc2C1 (stereo unspecified),-6.532,4.839,-0.2691
COc1cccc(C2CC(=O)Nc3nc(N4CCCCC4)sc32)c1OC (stereo unspecified),12.5,17,70.71
CC1Cc2ccccc2N1Cc1occc1C(=O)NCC(=O)N(C)C (stereo unspecified),1.092,14.89,0.4209
O=C(NCc1cncc2c1CCN(Cc1ccoc1)C2)C1CC1,-,7.519,-
CN(C)C(CNS(=O)(=O)c1cc(F)ccc1F)c1cccn1C (stereo unspecified),-24.49,9.441,12.93
COc1ccc(CC(=O)N2CC[C@@H]3[C@H](CC2)N(C)CCS3(=O)=O)cc1,-,7.904,-

Measurements from “University of Dundee, Small-Polar-MMV Screening Library” (2021), ChEMBL document CHEMBL3988442.